# According to PubChem BioAssay AID588590 (National Center for Advancing Translational Sciences (NCATS), 2011):
# Sequences of proteins named here, by UniProt entry; tags and fusion partners are left off. A change or cut given only in a name is not applied to a line headed by its entry.
# UniProt Q9UNA4: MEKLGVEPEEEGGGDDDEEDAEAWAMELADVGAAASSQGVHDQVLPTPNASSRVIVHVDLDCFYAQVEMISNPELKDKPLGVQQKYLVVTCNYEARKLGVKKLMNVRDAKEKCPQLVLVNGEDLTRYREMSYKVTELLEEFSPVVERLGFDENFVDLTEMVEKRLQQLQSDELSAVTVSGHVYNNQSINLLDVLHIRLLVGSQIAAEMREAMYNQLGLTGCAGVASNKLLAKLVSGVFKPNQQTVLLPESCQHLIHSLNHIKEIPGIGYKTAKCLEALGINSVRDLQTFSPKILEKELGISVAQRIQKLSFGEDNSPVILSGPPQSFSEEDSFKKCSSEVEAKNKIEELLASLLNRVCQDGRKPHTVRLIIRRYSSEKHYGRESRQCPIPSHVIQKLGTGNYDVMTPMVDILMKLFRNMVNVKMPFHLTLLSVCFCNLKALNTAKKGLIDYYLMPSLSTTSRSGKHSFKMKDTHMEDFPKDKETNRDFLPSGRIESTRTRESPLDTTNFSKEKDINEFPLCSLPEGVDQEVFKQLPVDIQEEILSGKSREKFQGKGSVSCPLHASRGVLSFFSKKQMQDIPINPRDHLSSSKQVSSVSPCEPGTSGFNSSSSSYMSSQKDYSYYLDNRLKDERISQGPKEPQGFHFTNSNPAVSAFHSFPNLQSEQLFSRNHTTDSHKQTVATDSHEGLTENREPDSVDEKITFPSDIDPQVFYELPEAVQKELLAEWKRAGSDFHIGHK
# The campaign covered roughly 390,000 compounds. About 4,000 (1%) were called active. This list was built around the results that the source calls inconclusive (neither active nor inactive); the mix of calls is not that of the screen. The call rests on the fitted dose curve; in most records, active means well fitted inhibition curve with a large enough effect; inconclusive means small, poorly fitted or top-dose-only effect, or another doubt; inactive means no such curve, though single readings can be large or run the other way. Where the call is inconclusive, the potency comes from a doubtful curve fit.
# Molecular target: DNA polymerase iota (Homo sapiens) (UniProt Q9UNA4)
# Test: qHTS for Inhibitors of Polymerase Iota
# Details: Pol iota fluorescent replication assay, 10 min; series mostly up to 115 µM; activity, negative = inhibition: at the top concentration
# Outline: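 Pol iota at 10 nM preincubated 15 min with compounds at room temperature; reaction started with fluorescent substrate, 50 nM final. Fluorescence read kinetically at 0 and 10 min; buffer-only wells as negative control.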
# Potency means the concentration at half of the fitted maximal effect.
SMILES,Potency,"activity, negative = inhibition"
CCOc1ccc(NC(=O)c2ccccc2NS(=O)(=O)c2ccc(F)cc2)c([N+](=O)[O-])c1,"inconclusive: 89.1 µM [inhibitor, partial curve, poor fit]",–
O=C(Nc1ccc(Cl)cc1N1CCOCC1)C1CC1,–,inactive: -24%
CCn1c2ccccc2c2cc(/C=N/n3c(-c4cc(C)[nH]n4)n[nH]c3=S)ccc21,"inconclusive: 20 µM [inhibitor, full curve, poor fit]",–
CS(=O)(=O)N1CCN(/[N+]([O-])=N/Oc2ccc([N+](=O)[O-])cc2[N+](=O)[O-])CC1 (tested in a mixture with another compound),"inconclusive: 15.8 µM [inhibitor, partial curve]",–
NC(N)=N/N=C/c1ccc(Br)cc1,"inconclusive: 89.1 µM [inhibitor, single point]",–
COc1cc(/C=C/C(=O)OCC(=O)N2CCCc3ccccc32)ccc1O,–,inactive: 49.2%
Cc1cc(C)c2c(c1)C(=O)/C(=C/c1ccc(C(=O)O)cc1)CC2,"inconclusive: 20 µM [inhibitor, partial curve, poor fit]",–
CCSc1nnc(NC(=O)c2ccc(Br)s2)s1,"inconclusive: 39.8 µM [inhibitor, full curve, poor fit]",–
CC(=O)N1c2ccccc2C(C)=CC1(C)C,"inconclusive: 22.4 µM [inhibitor, partial curve, poor fit]",–
CCOc1cc(/C=C2/C(=O)ON=C2C)ccc1OCc1ccc(F)cc1,"inconclusive: 35.5 µM [inhibitor, single point]",–
COc1ccc(C(=O)Nc2cccc(OCc3cc(=O)n4c5c(sc4n3)CCCC5)c2)cc1,–,inactive: 1.29%
CCCCCCC1C(C#N)=C(N)OC2=C1C(=O)CCC2 (stereo not drawn),"inconclusive: 3.16 µM [inhibitor, partial curve, poor fit]",–
COc1ccc(N(CC(=O)NC2CCCC2)C(=O)Cn2nnc(-c3ccc(C)cc3)n2)cc1,"inconclusive: 79.4 µM [inhibitor, single point]",–
COc1ccccc1-c1cc(C(=O)Nc2ccccc2C(F)(F)F)no1,"inconclusive: 89.1 µM [inhibitor, single point]",–
O=C(O)c1ccccc1NC(=S)NC(=O)c1sc2ccccc2c1Cl,–,inactive: -5.22%
COc1ccc(CCNC(=O)c2cc(S(=O)(=O)N3CCOCC3)ccc2F)cc1,–,inactive: 7.24%
CCOc1cc(C)nc(N2CCCC(C(=O)NCc3ccccc3F)C2)n1 (stereo not drawn),"inconclusive: 70.8 µM [inhibitor, single point]",–
O=C(CCC(=O)c1ccc[nH]1)c1ccc(Cl)cc1,"inconclusive: 39.8 µM [inhibitor, single point]",–

# Individual results from the list:
# For Potency, `Cc1cc(C)c2c(c1)C(=O)/C(=C/c1ccc(C(=O)O)cc1)CC2` is entered as inconclusive: 20 µM [inhibitor, partial curve, poor fit]
# For Potency, `O=C(CCC(=O)c1ccc[nH]1)c1ccc(Cl)cc1` is entered as inconclusive: 39.8 µM [inhibitor, single point]
